Test in all cases: glycan array binding signal (z-score within array); higher = stronger binding
What all share (conditions): glycan notation: IUPAC condensed, linker removed

Assay [1] deals with Fuc(a1-2)Gal. The method, boiled down:
(§1)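 From the Consortium for Functional Glycomics database, 3228 arrays were curated, keeping only those whose protein sequence was available. Binding is given as a within-array Z-score averaged across arrays sharing a protein sequence and across linkers. Negative Z-scores can be read as non-binding.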

Assay [2] has as its target Fuc(a1-2)Gal(b1-3)GalNAc. The method, boiled down:
as §1

Assay [3] addresses Fuc(a1-2)Gal(b1-3)GalNAc(a1-3)[Fuc(a1-2)]Gal(b1-4)Glc. In outline: as §1
The target in assay [4] is Fuc(a1-2)Gal(b1-3)GalNAc(a1-3)[Fuc(a1-2)]Gal(b1-4)GlcNAc. In outline:
as §1

The target of assay [5] is Fuc(a1-2)Gal(b1-3)GalNAc(b1-3)Gal. In outline: as §1
In assay [6] the target is Fuc(a1-2)Gal(b1-3)GalNAc(b1-3)Gal(a1-4)Gal(b1-4)Glc. In outline: as §1
For assay [7], the target named is Fuc(a1-2)Gal(b1-3)GalNAc(b1-4)[Neu5Ac(a2-3)]Gal(b1-4)Glc. The method, boiled down: as §1
Assay [8] concerns the target Fuc(a1-2)Gal(b1-3)GlcNAc. In outline:
as §1

In assay [9] the target is Fuc(a1-2)Gal(b1-3)GlcNAc(b1-2)Man(a1-3)[Fuc(a1-2)Gal(b1-3)GlcNAc(b1-2)Man(a1-6)]Man(b1-4)GlcNAc(b1-4)GlcNAc. In outline: as §1
For assay [10], the target named is Fuc(a1-2)Gal(b1-3)GlcNAc(b1-2)Man(a1-3)[Fuc(a1-2)Gal(b1-3)GlcNAc(b1-2)Man(a1-6)]Man(b1-4)GlcNAc(b1-4)[Fuc(a1-6)]GlcNAc. The method, boiled down: as §1
Assay [11] concerns the target Fuc(a1-2)Gal(b1-3)GlcNAc(b1-3)Gal(b1-4)Glc. The method, boiled down: as §1
Assay [12] deals with Fuc(a1-2)Gal(b1-3)GlcNAc(b1-3)GalNAc. In outline:
as §1

The target in assay [13] is Fuc(a1-2)Gal(b1-3)GlcNAc(b1-3)[Fuc(a1-2)Gal(b1-3)GlcNAc(b1-6)]GalNAc. In outline: as §1
Assay [14] deals with Fuc(a1-2)Gal(b1-3)GlcNAc(b1-3)[Gal(b1-4)GlcNAc(b1-6)]Gal(b1-4)Glc. In outline: as §1
For assay [15], the target named is Fuc(a1-2)Gal(b1-3)GlcNAc(b1-3)[Neu5Ac(a2-6)Gal(b1-4)GlcNAc(b1-6)]Gal(b1-4)Glc. In outline: as §1
Assay [16] concerns the target Fuc(a1-2)Gal(b1-3)GlcNAc6S. In outline: as §1
Assay [17] concerns the target Fuc(a1-2)Gal(b1-3)[Fuc(a1-4)]GlcNAc. In outline: as §1
Assay [18] addresses Fuc(a1-2)Gal(b1-3)[Fuc(a1-4)]GlcNAc(b1-2)Man(a1-3)[Fuc(a1-2)Gal(b1-3)[Fuc(a1-4)]GlcNAc(b1-2)Man(a1-3)]Man(b1-4)GlcNAc(b1-4)GlcNAc. The method, boiled down: as §1
Assay [19] has as its target Fuc(a1-2)Gal(b1-3)[Fuc(a1-4)]GlcNAc(b1-2)Man(a1-3)[Fuc(a1-2)Gal(b1-3)[Fuc(a1-4)]GlcNAc(b1-2)Man(a1-6)]Man(b1-4)GlcNAc(b1-4)[Fuc(a1-6)]GlcNAc(b1-4)[Fuc(a1-6)]GlcNAc. In outline: as §1
Assay [20] has as its target Fuc(a1-2)Gal(b1-3)[Fuc(a1-4)]GlcNAc(b1-3)[Fuc(a1-3)[Gal(b1-4)]GlcNAc(b1-6)]Gal(b1-4)Glc. In outline: as §1
Assay [21] addresses Fuc(a1-2)Gal(b1-3)[Fuc(a1-4)]GlcNAc(b1-3)[Gal(b1-4)GlcNAc(b1-6)]Gal(b1-4)Glc. In outline:
as §1

In assay [22] the target is Fuc(a1-2)Gal(b1-4)Fuc(a1-3)]GlcNAc(b1-2)Man(a1-3)[Fuc(a1-2)Gal(b1-4)[Fuc(a1-3)]GlcNAc(b1-2)Man(a1-6)]Man(b1-4)GlcNAc(b1-4)GlcNAc. In outline:
as §1

These results are taken from the supplement of paper PMC8728848.

The other results are listed elsewhere or left out.

B1: Actd5 (Actinidia), P84527 (protein)
chain: ISSCNGPCRDLNDCDGQLICIKGKCNDDPQVGTHICRGTTHSHQPGGCKPSGTLTCRGKSYPTYDCSPPVTSSTPAKLTNNDFSEGGDDGGPSECDESYHNNNERIVALSTGWYNGGSRCGKMIRITASNGKSVSAKVVDECDSRHGCDKEHAGQPPCRNNIVDGSNAVWSALGLDKNVGVVDITWSMA
Turning to B1, the “glycan array binding signal (z-score)” value in [1] is -0.037; in assay [2], 1.06; in assay [3], -0.634; in [4], -0.878; in assay [5] it was -0.603; in [6], -0.001. In addition, the “glycan array binding signal (z-score)” value in [7] is -0.284; in assay [8] it was -1.01; in assay [9] it was 0.871; in assay [10], 0.511; in assay [11] it was 0.335; in assay [12], 0.233. The “glycan array binding signal (z-score)” value in assay [13] is -0.331; in assay [14], -0.318; in assay [15], -0.414; in assay [16], -0.761; in assay [17], 0.27; in assay [18], -0.065. Besides, the “glycan array binding signal (z-score)” value in assay [19] was 0.593; in assay [20] it was -0.01; in assay [21], -0.792; in [22], 1.8.
